Values of other authors as cited in patent publication US20200101029A1, “METHOD AND SYSTEM FOR PRESERVING COGNITIVE CAPACITY DURING AGING” (priority 2018, published 2020).
At least one compound was matched to its structure with a doubt left.

Test system: nrf2
Details: via the ERK1/2 pathway

## O=c1c(O[C@@H]2O[C@H](CO)[C@@H](O)[C@H](O)[C@H]2O)c(-c2ccc(O)c(O)c2)oc2cc(O)cc(O)c12 [isoquercitrin]
  nrf2 activation: activates nrf2 via the ERK1/2 pathway
